Key:
Rat [1] = test: concentration in blood after dosing; conditions: 5 min; dosed: Benzophenone; 10 mg/kg; oral; Male; F344
Rat [2] = test: concentration in blood after dosing; conditions: 10 min; dosed: Benzophenone; 5 mg/kg; oral; Male; F344
Rat [3] = test: concentration in blood after dosing; conditions: 0.5 h; dosed: Benzophenone; 10 mg/kg; oral; Male; F344
Rat [4] = test: concentration in blood after dosing; conditions: 0.5 h; dosed: Benzophenone; 5 mg/kg; oral; Female; F344
Rat [5] = test: concentration in blood after dosing; conditions: 0.5 h; dosed: Benzophenone; 10 mg/kg; oral; Female; F344
Rat [6] = test: concentration in blood after dosing; conditions: 0.125 h; dosed: Benzophenone; 10 mg/kg; oral; Female; F344
Mouse [7] = test: concentration in plasma after dosing; conditions: 1 h; dosed: Benzophenone; 30 mg/kg; oral; Female; B6C3F1
Mouse [8] = test: concentration in plasma after dosing; conditions: 0.125 h; dosed: Benzophenone; 30 mg/kg; oral; Male; B6C3F1
Mouse [9] = test: concentration in plasma after dosing; conditions: 20 min; dosed: Benzophenone; 15 mg/kg; iv; Male; B6C3F1
Mouse [10] = test: concentration in plasma after dosing; conditions: 1.5 h; dosed: Benzophenone; 30 mg/kg; oral; Male; B6C3F1
Mouse [11] = test: concentration in plasma after dosing; conditions: 1.5 h; dosed: Benzophenone; 15 mg/kg; oral; Female; B6C3F1
Mouse [12] = test: concentration in plasma after dosing; conditions: 0.25 h; dosed: Benzophenone; 15 mg/kg; iv; Female; B6C3F1
Mouse [13] = test: concentration in plasma after dosing; conditions: 5 min; dosed: Benzophenone; 30 mg/kg; oral; Female; B6C3F1
Mouse [14] = test: concentration in plasma after dosing; conditions: 7 min; dosed: Benzophenone; 15 mg/kg; iv; Female; B6C3F1
Mouse [15] = test: concentration in plasma after dosing; conditions: 0.5 h; dosed: Benzophenone; 60 mg/kg; oral; Female; B6C3F1
Rat [16] = test: concentration in plasma after dosing; conditions: dosed: Benzophenone, 10 mg/kg, oral, Male, F344
Mouse [17] = test: concentration in plasma after dosing; conditions: 1 h; dosed: Benzophenone; 15 mg/kg; iv; Male; B6C3F1
Mouse [18] = test: concentration in plasma after dosing; conditions: 0.25 h; dosed: Benzophenone; 15 mg/kg; oral; Female; B6C3F1
Mouse [19] = test: concentration in plasma after dosing; conditions: 0.75 h; dosed: Benzophenone; 15 mg/kg; oral; Male; B6C3F1
Mouse [20] = test: concentration in plasma after dosing; conditions: 6 h; dosed: Benzophenone; 15 mg/kg; oral; Female; B6C3F1
Rat [21] = test: concentration in plasma after dosing; conditions: dosed: Benzophenone, 10 mg/kg, oral, Male, F344; remark: listed apart in the source
Mouse [22] = test: concentration in plasma after dosing; conditions: 0.125 h; dosed: Benzophenone; 30 mg/kg; oral; Female; B6C3F1
Mouse [23] = test: concentration in plasma after dosing; conditions: 10 min; dosed: Benzophenone; 60 mg/kg; oral; Male; B6C3F1
Mouse [24] = test: concentration in plasma after dosing; conditions: 4 min; dosed: Benzophenone; 15 mg/kg; iv; Male; B6C3F1
Mouse [25] = test: concentration in plasma after dosing; conditions: 0.25 h; dosed: Benzophenone; 15 mg/kg; oral; Male; B6C3F1
Mouse [26] = test: concentration in plasma after dosing; conditions: 10 min; dosed: Benzophenone; 30 mg/kg; oral; Male; B6C3F1
Mouse [27] = test: concentration in plasma after dosing; conditions: 1.5 h; dosed: Benzophenone; 30 mg/kg; oral; Female; B6C3F1
Rat [28] = test: concentration in plasma after dosing; conditions: dosed: Benzophenone, 5 mg/kg, oral, Female, F344
Mouse [29] = test: concentration in plasma after dosing; conditions: 0.125 h; dosed: Benzophenone; 15 mg/kg; oral; Female; B6C3F1
Mouse [30] = test: concentration in plasma after dosing; conditions: 4 min; dosed: Benzophenone; 15 mg/kg; iv; Female; B6C3F1
Mouse [31] = test: concentration in plasma after dosing; conditions: 1.25 h; dosed: Benzophenone; 15 mg/kg; iv; Female; B6C3F1
Rat [32] = test: concentration in plasma after dosing; conditions: 16 h; dosed: Benzophenone; 5 mg/kg; oral; Female; F344
Mouse [33] = test: concentration in plasma after dosing; conditions: 3 h; dosed: Benzophenone; 15 mg/kg; iv; Female; B6C3F1
Rat [34] = test: concentration in plasma after dosing; conditions: 16 h; dosed: Benzophenone; 10 mg/kg; oral; Female; F344
Mouse [35] = test: concentration in plasma after dosing; conditions: 4 min; dosed: Benzophenone; 15 mg/kg; iv; Male; B6C3F1; remark: listed apart in the source
Mouse [36] = test: concentration in plasma after dosing; conditions: 3 h; dosed: Benzophenone; 60 mg/kg; oral; Female; B6C3F1
Rat [37] = test: concentration in plasma after dosing; conditions: dosed: Benzophenone, 10 mg/kg, oral, Male, F344; remark: listed apart in the source
Mouse [38] = test: concentration in plasma after dosing; conditions: 3 h; dosed: Benzophenone; 60 mg/kg; oral; Female; B6C3F1; remark: listed apart in the source
Rat [39] = test: concentration in plasma after dosing; conditions: dosed: Benzophenone, 5 mg/kg, oral, Male, F344
Mouse [40] = test: concentration in plasma after dosing; conditions: 0.5 h; dosed: Benzophenone; 15 mg/kg; iv; Male; B6C3F1
Rat [41] = test: concentration in plasma after dosing; conditions: dosed: Benzophenone, 10 mg/kg, oral, Female, F344

O=C(c1ccccc1)c1ccccc1 [Benzophenone]
Conditions	concentration in blood [ng/mL]	concentration in plasma [ng/mL]
Mouse [7]	–	417
Mouse [8]	–	1590
Mouse [9]	–	1760
Mouse [10]	–	204
Mouse [11]	–	96.1
Mouse [12]	–	2400
Mouse [13]	–	2390
Mouse [14]	–	2920
Mouse [15]	–	1800
Mouse [17]	–	211
Mouse [18]	–	446
Mouse [19]	–	200
Mouse [20]	–	12.6
Mouse [22]	–	1580
Mouse [23]	–	4500
Mouse [24]	–	5450
Mouse [25]	–	413
Mouse [26]	–	1620
Mouse [27]	–	182
Mouse [29]	–	597
Mouse [30]	–	5380
Mouse [31]	–	239
Mouse [33]	–	58.8
Mouse [35]	–	5410
Mouse [36]	–	247
Mouse [38]	–	225
Mouse [40]	–	2440
Rat [1]	1810	–
Rat [2]	466	–
Rat [3]	1300	–
Rat [4]	479	–
Rat [5]	983	–
Rat [6]	2130	–
Rat [32]	–	21.8
Rat [34]	–	37.8

Conditions	concentration in plasma [ng/mL]
Rat [16], 0.5 h	396
Rat [16], 10 h	135
Rat [21], 1 h	227
Rat [21], 2.5 min	28.4
Rat [28], 2 h	57.9
Rat [28], 5 min	101
Rat [37], 0.25 h	270
Rat [37], 24 h	46.4
Rat [39], 0.25 h	210
Rat [39], 24 h	15
Rat [41], 2 h	249
Rat [41], 5 min	596

Source: EPA's CvTdb concentration-time database
